This note sets out measurements from paper PMC12130529.

The chains behind the UniProt entries cited, without tags or fusion partners. Where a name states a change or a piece, a line headed by the entry shows the natural chain unless it says otherwise.
UniProt O00560: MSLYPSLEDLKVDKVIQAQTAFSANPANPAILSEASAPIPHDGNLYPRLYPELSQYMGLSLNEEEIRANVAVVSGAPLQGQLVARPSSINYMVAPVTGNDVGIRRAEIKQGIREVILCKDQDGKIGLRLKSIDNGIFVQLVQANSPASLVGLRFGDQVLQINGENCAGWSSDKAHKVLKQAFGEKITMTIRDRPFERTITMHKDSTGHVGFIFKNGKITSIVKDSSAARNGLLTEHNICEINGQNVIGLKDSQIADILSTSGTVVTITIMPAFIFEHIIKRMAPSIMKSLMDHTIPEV
UniProt Q8NEZ5: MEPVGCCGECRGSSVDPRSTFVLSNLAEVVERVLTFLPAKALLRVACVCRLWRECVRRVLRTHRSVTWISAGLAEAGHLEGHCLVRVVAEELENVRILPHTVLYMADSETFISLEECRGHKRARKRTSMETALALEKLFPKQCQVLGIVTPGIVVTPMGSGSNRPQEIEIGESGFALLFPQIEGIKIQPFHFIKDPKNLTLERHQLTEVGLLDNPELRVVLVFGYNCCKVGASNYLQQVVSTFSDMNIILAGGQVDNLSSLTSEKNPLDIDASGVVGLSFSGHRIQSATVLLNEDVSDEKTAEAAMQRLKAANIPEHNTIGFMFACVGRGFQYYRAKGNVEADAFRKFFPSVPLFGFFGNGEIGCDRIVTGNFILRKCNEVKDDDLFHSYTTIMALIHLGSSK

Assay [1] addresses Myc-SDCBP (not stated (human or mouse cDNA constructs purchased)) (UniProt O00560). Description: co-IP; HEK293 cells transfected with the indicated plasmids; lysis in ice-cold RIPA buffer, antibody overnight at 4 °C, protein A/G PLUS-agarose or Dynabeads protein G, four washes with RIPA, Western blot (Fig. EV4J, EV5A,B, 4C).
Assay [2] has as its target His-SKP1 (not stated (human or mouse cDNA constructs purchased)) (UniProt P63208). Description: pull-down; His pull-down of His-SKP1 with Dynabeads His-Tag Isolation and Pulldown from lysates of transfected HEK293 cells, with control vector or Myc-SDCBP; Western blot (Fig. EV5E, 4D). (In western blotting, separated proteins are transferred to a membrane and probed.)

These are yes or no findings as the source states them, for the method shown. Binding seen in cells or lysates may run through a third protein. Some results given as binding are weak or reduced against the parent protein; the word gives no strength.

Regarding “HA-FBXO22_Δ1 (from UniProt Q8NEZ5 62-403) (domain or fragment)”, the binding entry in assay [1] is on record as “no binding”. For “HA-FBXO22_Δ2 (from UniProt Q8NEZ5 1-285) (domain or fragment)”, the binding result in assay [1] was “no binding”. Turning to Myc-SDCBP (from UniProt O00560 1-298), the binding result in assay [2] is listed as “binds”.
